Results are given in words; binding and its absence hold for the method and conditions named. For some of these results: Binding seen in cells or lysates may run through a third protein. Some entries that bind do so weakly or less than the wild type. For some of these results: Sequences can lack the tags named with a protein. Values belong to the molecule of their own block, whether it stands above or below them.
What was measured:
[1] = target: recombinant HisAtPYR1 (Arabidopsis thaliana) (UniProt O49686); test: SDS-PAGE and Western blot of oligomeric forms; recombinant HisAtPYR1 in 20 mM Tris-HCl pH 7.9 treated with 2 mM DTT, 30 min, room temperature; SDS-PAGE, anti-AtPYR1; both purified
[2] = target: bovine serum albumin (bovine) (UniProt P02769); test: far-Western, overlay or dot blot; 1 or 0.5 μg PsTRXo1 and HisPsTRXo1C37S and 10 μg BSA spotted on nitrocellulose, overlaid with 10 μg/ml HisAtPYR1 in TBS, 2 h, room temperature; detected with anti-PYR1; both purified
[3] = target: AtPYR1 fused to a GFP half (BiFC) (Arabidopsis thaliana) (UniProt O49686); test: split reporter; BiFC with GFP halves (pNX, pXN, pCX, pXC) in agroinfiltrated Nicotiana benthamiana leaves, confocal microscopy after 72 h
[4] = target: T1, recombinant HisAtPYR1 (Arabidopsis thaliana), O49686; test: disulfide mapping by bottom-up LC-MS/MS; recombinant PYR1, DTT-treated and then 4 mM H2O2 (with or without 2 mM dimedone), free thiols labelled with 4 mM NEM, trypsin, nano LC-MS on Orbitrap Fusion Lumos, pLink2; no S-S found in the DTT-treated protein; both purified; conditions: remark: other sources report otherwise
T1 chain: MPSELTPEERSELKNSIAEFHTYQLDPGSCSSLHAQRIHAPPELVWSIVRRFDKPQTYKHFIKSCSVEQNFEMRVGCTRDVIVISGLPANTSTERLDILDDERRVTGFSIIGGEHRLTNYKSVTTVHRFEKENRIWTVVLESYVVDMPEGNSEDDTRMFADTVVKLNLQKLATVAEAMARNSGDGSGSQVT

By UniProt entry, the sequences of proteins in these tests, tags left out. Residues count along the entry.
UniProt P02769, residues 25-607: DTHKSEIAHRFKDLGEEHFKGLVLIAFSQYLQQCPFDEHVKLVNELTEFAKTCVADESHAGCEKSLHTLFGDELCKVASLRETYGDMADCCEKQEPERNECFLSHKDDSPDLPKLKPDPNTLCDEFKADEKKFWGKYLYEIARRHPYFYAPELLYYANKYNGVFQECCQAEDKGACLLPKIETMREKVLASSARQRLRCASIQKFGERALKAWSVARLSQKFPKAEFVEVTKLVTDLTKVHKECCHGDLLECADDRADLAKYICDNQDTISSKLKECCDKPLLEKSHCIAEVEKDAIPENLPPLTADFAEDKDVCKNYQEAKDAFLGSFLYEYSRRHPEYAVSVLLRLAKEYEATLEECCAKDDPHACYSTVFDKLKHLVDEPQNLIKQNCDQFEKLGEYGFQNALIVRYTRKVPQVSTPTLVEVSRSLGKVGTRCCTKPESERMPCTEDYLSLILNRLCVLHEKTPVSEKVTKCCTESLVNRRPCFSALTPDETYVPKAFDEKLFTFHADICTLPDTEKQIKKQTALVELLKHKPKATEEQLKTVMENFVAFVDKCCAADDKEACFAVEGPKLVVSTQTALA

binding [1]: binds weakly
binding [2]: no binding (tested: 10 μg/ml HisAtPYR1)
Molecule: recombinant HisAtPYR1 (from UniProt O49686 1-191) (receptor)

binding [3]: binds
B1: AtTRXo1 fused to a GFP half (BiFC) (enzyme, UniProt O64764 43-194)
chain: SSLIARNSLFTASNIGPSIDFNFSNTSLPHRRSLCSEAGGENGVVLVKSEEEFINAMSKAQDGSLPSVFYFTAAWCGPCRFISPVIVELSKQYPDVTTYKVDIDEGGISNTISKLNITAVPTLHFFKGGSKKGEVVGADVTKLKNLMEQLYK

binding [4]: binds
B2: recombinant HisAtPYR1, O49686 1-191 (receptor)
chain: MPSELTPEERSELKNSIAEFHTYQLDPGSCSSLHAQRIHAPPELVWSIVRRFDKPQTYKHFIKSCSVEQNFEMRVGCTRDVIVISGLPANTSTERLDILDDERRVTGFSIIGGEHRLTNYKSVTTVHRFEKENRIWTVVLESYVVDMPEGNSEDDTRMFADTVVKLNLQKLATVAEAMARNSGDGSGSQVT

Reference: article PMC10244696, “Thioredoxin TRXo1 is involved in ABA perception via PYR1 redox regulation” (Redox Biology, 2023)
